Test results from the supplement of paper PMC12425257.
± gives the standard deviation of the averaged measurements. Some of the results follow.

System: Madurella mycetomatis MM55
Assay: metabolic activity (growth) relative to DMSO growth control; higher = more fungal growth

| SMILES | metabolic activity (1 µM) [%] | metabolic activity (2 µM) [%] | metabolic activity (10 µM) [%] |
| --- | --- | --- | --- |
| C=CC(=O)Nc1cc(-c2nn(C3CCC(N4CCN(C(C)=O)CC4)CC3)c3ncnc(N)c23)ccc1Oc1ccccc1 (stereo unspecified) | 120 ± 8.2 | 129 ± 49 | 132 ± 6.4 |
| OCC1OC(n2cnc3cc(Cl)c(Cl)cc32)C(O)C1O (stereo unspecified) | 75.9 ± 13 | 95.6 ± 3.1 | 93.5 ± 18 |
